The list is a part of this screen's results and no random one: it gathers tests that were run many times, whatever their T/C, doses with no T/C, and many T/C values between a quarter and a half above the control. Further doses and runs are listed elsewhere. T/C gives the treated animals as a percentage of the vehicle group. Some entries give survivors of the animals treated and no T/C: the source holds a T/C of zero for them, seemingly a mark for toxic or unscored doses. Some survivor counts are full or nearly so, which does not show that the dose was tolerated: the source hardly ever lists a survival T/C far under the control, and the zero likely stands for such cases as well. Counts of survivors are from the toxicity check (mostly the fifth day) where no day follows; animals may have died later. Schedules are NCI's codes, read here as Q, the interval in days (D) or hours (H), X, the number of doses. Some schedules carry Z or #; the key to these is not given. For survival time, the PubChem record calls one and a half times the control and up active, and a quarter to a half above the control has no call in these data; cut-offs in other NCI protocols can differ. Some entries were tested several times; the results are listed from low to high. Some T/C values are followed by the survivors on the day toxicity was checked, most often the fifth; where none is given, no animal had died by that day.
System: L1210 leukemia ip in BDF1 mice, survival T/C
Test: NCI In Vivo Anticancer Drug Screen. Data for tumor model L1210 Leukemia (intraperitoneal) in B6D2F1 (BDF1) mice
Details: higher T/C = longer survival

## Oc1cc(CN(CCCl)CCCl)c(O)cc1CN(CCCl)CCCl
T/C endpoint: mean survival time, dose: 0.03 mg/kg/injection, schedule: Q03DX006 (ip), vehicle: saline
  T/C: 134 % of control
T/C endpoint: mean survival time, dose: 0.05 mg/kg/injection, schedule: Q03DX006 (ip), vehicle: saline
  T/C: 142 % of control
T/C endpoint: mean survival time, dose: 0.06 mg/kg/injection, schedule: Q07DX003 (ip), vehicle: saline
  T/C: 128 % of control
T/C endpoint: mean survival time, dose: 0.1 mg/kg/injection, schedule: Q03DX006 (ip), vehicle: saline
  T/C: 140 % of control
T/C endpoint: mean survival time, dose: 0.12 mg/kg/injection, schedule: Q07DX003 (ip), vehicle: saline
  T/C: 127 % of control
T/C endpoint: mean survival time, dose: 0.12 mg/kg/injection, schedule: Q#A X Z (ip), vehicle: saline
  T/C: 136 % of control
T/C endpoint: mean survival time, dose: 0.2 mg/kg/injection, schedule: Q03DX006 (ip), vehicle: saline
  T/C: 128 % of control
T/C endpoint: mean survival time, dose: 0.25 mg/kg/injection, schedule: Q#A X Z (ip), vehicle: saline
  T/C: 136 % of control
T/C endpoint: mean survival time, dose: 0.38 mg/kg/injection, schedule: Q03DX006 (ip), vehicle: saline
  T/C: 136 % of control
T/C endpoint: mean survival time, dose: 0.5 mg/kg/injection, schedule: Q01DX Z (ip), vehicle: saline
  T/C: 138 % of control
T/C endpoint: mean survival time, dose: 0.75 mg/kg/injection, schedule: Q03DX006 (ip), vehicle: saline
  T/C: 145 % of control
T/C endpoint: mean survival time, dose: 1.0 mg/kg/injection, schedule: Q01DX010 (ip), vehicle: saline
  T/C: 128 % of control
T/C endpoint: mean survival time, dose: 1.0 mg/kg/injection, schedule: Q01DX Z (ip), vehicle: saline
  T/C: 130 % of control
T/C endpoint: mean survival time, dose: 1.0 mg/kg/injection, schedule: Q07DX003 (ip), vehicle: saline
  T/C: 125 % of control
T/C endpoint: mean survival time, dose: 1.0 mg/kg/injection, schedule: Q#A X Z (ip), vehicle: saline
  T/C: 127 % of control
T/C endpoint: mean survival time, dose: 1.25 mg/kg/injection, schedule: Q01DX010 (ip), vehicle: saline
  T/C: 128 % of control
T/C endpoint: mean survival time, dose: 1.5 mg/kg/injection, schedule: Q03DX006 (ip), vehicle: saline
  T/C: 127 % of control
T/C endpoint: mean survival time, dose: 2.0 mg/kg/injection, schedule: Q01DX010 (ip), vehicle: saline
  T/C: 132 % of control
T/C endpoint: mean survival time, dose: 2.0 mg/kg/injection, schedule: Q01DX Z (ip), vehicle: saline
  T/C: 129 % of control
T/C endpoint: mean survival time, dose: 2.0 mg/kg/injection, schedule: Q07DX003 (ip), vehicle: saline
  T/C: 132 % of control [5 of 6 alive]
T/C endpoint: mean survival time, dose: 2.0 mg/kg/injection, schedule: Q#A X Z (ip), vehicle: saline
  T/C: 131 % of control
T/C endpoint: mean survival time, dose: 2.5 mg/kg/injection, schedule: Q01DX009 (ip), vehicle: saline
  T/C: 135 % of control
T/C endpoint: mean survival time, dose: 2.5 mg/kg/injection, schedule: Q01DX010 (ip), vehicle: saline
  T/C: 133 % of control
T/C endpoint: mean survival time, dose: 4.0 mg/kg/injection, schedule: Q01DX001 (ip), vehicle: saline
  T/C: 145 % of control
T/C endpoint: mean survival time, dose: 4.0 mg/kg/injection, schedule: Q01DX Z (ip), vehicle: saline
  T/C: 125 % of control
T/C endpoint: mean survival time, dose: 4.0 mg/kg/injection, schedule: Q07DX003 (ip), vehicle: saline
  T/C: 131 % of control
T/C endpoint: mean survival time, dose: 4.0 mg/kg/injection, schedule: Q#A X Z (ip), vehicle: saline
  T/C: 135 % of control
T/C endpoint: mean survival time, dose: 5.0 mg/kg/injection, schedule: Q01DX009 (ip), vehicle: saline
  T/C: 140 % of control
T/C endpoint: mean survival time, dose: 6.0 mg/kg/injection, schedule: Q03DX006 (ip), vehicle: saline
  T/C: 138 % of control
T/C endpoint: mean survival time, dose: 8.0 mg/kg/injection, schedule: Q01DX Z (ip), vehicle: saline
  T/C: 129 % of control
T/C endpoint: mean survival time, dose: 8.0 mg/kg/injection, schedule: Q07DX003 (ip), vehicle: saline
  T/C: 143 % of control
T/C endpoint: mean survival time, dose: 12.0 mg/kg/injection, schedule: Q03DX006 (ip), vehicle: saline
  T/C: 138 % of control
T/C endpoint: mean survival time, dose: 32.0 mg/kg/injection, schedule: Q01DX001 (ip), vehicle: saline
  T/C: 130 % of control
T/C endpoint: mean survival time, dose: 32.0 mg/kg/injection, schedule: Q01DX006 (iv), vehicle: saline
  survivor count: 0 of 6
T/C endpoint: mean survival time, dose: 32.0 mg/kg/injection, schedule: Q07DX003 (ip), vehicle: saline
  survivor count: 4 of 6
T/C endpoint: mean survival time, dose: 64.0 mg/kg/injection, schedule: Q01DX006 (iv), vehicle: saline
  survivor count: 0 of 6
T/C endpoint: mean survival time, dose: 128.0 mg/kg/injection, schedule: Q01DX006 (iv), vehicle: saline
  survivor count: 0 of 6
T/C endpoint: mean survival time, dose: 128.0 mg/kg/injection, schedule: Q01DX Z (im), vehicle: saline
  survivor count: 3 of 6
T/C endpoint: mean survival time, dose: 128.0 mg/kg/injection, schedule: Q01DX Z (oral), vehicle: saline
  survivor count: 4 of 6
T/C endpoint: mean survival time, dose: 128.0 mg/kg/injection, schedule: Q01DX Z (sc), vehicle: saline
  survivor count: 3 of 6
T/C endpoint: mean survival time, dose: 128.0 mg/kg/injection, schedule: Q07DX003 (ip), vehicle: saline
  survivor count: 2 of 6
T/C endpoint: mean survival time, dose: 256.0 mg/kg/injection, schedule: Q01DX Z (oral), vehicle: saline
  survivor count: 3 of 6
T/C endpoint: mean survival time, dose: 512.0 mg/kg/injection, schedule: Q01DX001 (ip), vehicle: saline
  survivor count: 1 of 6
T/C endpoint: mean survival time, dose: 512.0 mg/kg/injection, schedule: Q01DX Z (oral), vehicle: saline
  survivor count: 2 of 6
T/C endpoint: mean survival time, dose: 32.0 micrograms/kg/injection, schedule: Q03DX003 (ip), vehicle: saline
  survivor count: 5 of 6
T/C endpoint: mean survival time, dose: 37.5 micrograms/kg/injection, schedule: Q07DX002 (ip), vehicle: saline
  survivor count: 6 of 6
T/C endpoint: mean survival time, dose: 62.5 micrograms/kg/injection, schedule: Q03DX003 (ip), vehicle: saline
  survivor count: 6 of 6
T/C endpoint: mean survival time, dose: 75.0 micrograms/kg/injection, schedule: Q07DX002 (ip), vehicle: saline
  survivor count: 2 of 6
T/C endpoint: mean survival time, dose: 150.0 micrograms/kg/injection, schedule: Q07DX001 (ip), vehicle: saline
  survivor count: 5 of 6
T/C endpoint: mean survival time, dose: 300.0 micrograms/kg/injection, schedule: Q07DX001 (ip), vehicle: saline
  survivor count: 1 of 6
T/C endpoint: median survival time, dose: 1.25 mg/kg/injection, schedule: Q01DX009 (ip), vehicle: saline
  T/C: 127 % of control
T/C endpoint: median survival time, dose: 2.5 mg/kg/injection, schedule: Q01DX009 (ip), vehicle: saline
  T/C: 127 and 128 % of control
T/C endpoint: median survival time, dose: 5.0 mg/kg/injection, schedule: Q01DX009 (ip), vehicle: saline
  T/C: 142 % of control

## Nc1nc2ccc([N+](=O)[O-])cc2s1
T/C endpoint: mean survival time, dose: 200.0 mg/kg/injection, schedule: Q01DX009 (ip), vehicle: Klucel (hydroxypropylcellulose) (HPC)
  survivor count: 0 of 6
T/C endpoint: mean survival time, dose: 400.0 mg/kg/injection, schedule: Q01DX009 (ip), vehicle: Klucel (hydroxypropylcellulose) (HPC)
  survivor count: 0 of 6
